Experimental data taken from PubChem BioAssay AID2417 (National Center for Advancing Translational Sciences (NCATS), 2010).
Among all 140,000 compounds or so, about 4,300 (3.1%) were called active. Inconclusive results, whose numbers are uncertain, are shown with a selection of clear calls.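 Rule for the calls: active = readout at or below -70, meaning at least 70% loss of cells showing the perinucleolar compartment, a nuclear body marking cancer cells; inconclusive = readout between -30 and a set limit; inactive = the rest.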

Assay: High Content Assay for Compounds that inhibit the Assembly of the Perinucleolar Compartment;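 note: plate controls were DMSO wells for no effect and camptothecin positive control wells for full effect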
Details: PC3M PTB-GFP, PNC prevalence imaging, 16 h; at 10 µM; hits give low values
How it was run: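 Compounds are pinned in duplicate onto adhered PC3M cells stably expressing GFP-tagged PTB and incubated 16 h at 37 C. Cells are then fixed, nuclei stained with Hoechst, and PNC-positive cells counted.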

Compound	activity change (PNC), negative = inhibition
O=C(NCCN1CCCCC1)c1ccco1	inconclusive: -39.1%
COc1ccc(OCC(=O)N/N=C/C=C/c2ccccc2)cc1	active: -115%
COC(=O)C1=C(C)Nc2c(c(=O)n(C)c(=O)n2C)C1c1ccncc1 (stereo not given)	inconclusive: -62.5%
COc1ccc(/C=c2\sc3nc(-c4ccccc4OC)nn3c2=O)c(OC)c1	inactive: 26%
CCCSc1nc2c(c(=O)n1-c1ccc(OCC)cc1)SCC2	inconclusive: -68.4%
COc1ccccc1-c1n[nH]c(=S)o1	inactive: -13.9%
Cc1ccc(S/C=C\C(=O)c2ccccc2)cc1	inconclusive: -55.8%
CCCOc1ccc(C(=O)NC(=S)Nc2nc3ccc(C)cc3s2)cc1	inactive: 60.6%
CCOC(=O)SC1=N/C(=C\c2ccc(N(C)C)cc2)C(=O)S1	inactive: 39.7%
CCCn1nc(C(=O)Nc2nc3ccccc3[nH]2)c2ccccc2c1=O	inconclusive: -54.2%
COc1cccc(NC(=O)CSc2c3c(nc4ccccc24)CCCC3)c1	inconclusive: -33.3%
O=C(CN(c1ccc(F)cc1)S(=O)(=O)c1ccc2c(c1)OCCO2)Nc1cccnc1	inconclusive: -44.5%
COCCNCC#CCOc1ccc(OC)cc1	inactive: -8.82%
CSc1cccc(NS(=O)(=O)c2ccc3c(c2)oc(=O)n3C)c1	inconclusive: -56.1%
O=C(/C=C/Nc1ccccc1C(=O)O)c1cccs1	inconclusive: -65.5%
CCOC(=O)N1CCC(n2c(=S)[nH]c3ccccc3c2=O)CC1	inconclusive: -38.6%
COC(=O)c1ccc(Cn2c(CN3CCOCC3)nc3ccccc3c2=O)o1	inactive: -18.5%
Cc1ccc2oc(=O)c3cnn(CC(=O)NCCN(C)C)c3c2c1	inconclusive: -49.1%
Cc1ccc(-c2cc(-c3ccccc3)no2)c(O)c1	inactive: 37.6%
CCCN1C(=O)/C(=C/c2cc(C)n(C)c2C)SC1=Nc1ccc(OCC)cc1	inactive: -26.4%
C/C(=N\NC(=O)Cn1nc(C)c(Br)c1C)c1cccs1	inconclusive: -74.8%
Cc1cc(-c2ccccc2)nc(N2CCN(c3ccccn3)CC2)n1	inconclusive: -35.6%
Cn1c(=O)c2c(nc(CN3CCN(Cc4ccccc4)CC3)n2Cc2cccc(Cl)c2)n(C)c1=O	inactive: -16.2%

Compound	activity change (PNC), negative = inhibition
CCCCOc1ccc(NC(=O)[C@@H]2CCCN2C(=O)C2CCN(S(=O)(=O)c3ccc(C)cc3)CC2)cc1	inactive: 7.21%
COc1ccc(Br)cc1CNC(=O)CCc1nc(-c2ccc(C)cc2)no1	inconclusive: -33%
CCn1ncc(CNC(=O)c2cccc([N+](=O)[O-])c2)c1C	active: -91.6%
CCN(CC)c1ncnc2ccc(Br)cc12	inconclusive: -75%
CCOC(=O)c1cc2ccc(OC)c(OC)c2c(=O)s1	inactive: 4.45%
COc1cccc(C(CC(=O)NCCN2CCOCC2)NS(=O)(=O)c2ccc(C)cc2)c1OC (stereo not given)	inconclusive: -54.6%
CN(C)CCNC(=O)CNC(=S)N(Cc1ccccc1)Cc1cccnc1	inconclusive: -40.2%
O=C(CN(c1ccccc1)S(=O)(=O)c1ccccc1[N+](=O)[O-])NN=C1CCCCCCC1	inactive: 13.4%
CCOc1cc(/C=C2\N=C(SCC)SC2=O)cc([N+](=O)[O-])c1OC(C)=O	inconclusive: -46.8%
O=C(Nc1c2c(nc3ccccc13)CCCC2)c1ccccc1Br	active: -109%
COc1cc(C(=O)CCN2CCC(c3ccccc3)C2)cc(OC)c1OC (stereo not given)	inactive: 38.6%
CCN1CCN(Cc2nc3c(c(=O)n(C)c(=O)n3C)n2CCCc2ccccc2)CC1	inactive: -14.7%
Cn1cccc1/C=N/n1c(-c2ccc(Cl)cc2Cl)n[nH]c1=S	inactive: 14.8%
CC(=O)c1ccc(N2CCN(C(=S)Nc3cc(C)ccc3C)CC2)cc1	active: -90.2%
Cc1cccc(-n2cnc3cc(C(=O)N4CCc5ccccc54)ccc32)c1	inconclusive: -37.6%
COc1ccc(N2CCC(CNC(=O)Nc3ccc(OC)cc3OC)C2)cc1 (stereo not given)	inconclusive: -46.7%
COc1ccc(C=O)cc1OS(=O)(=O)c1ccccc1[N+](=O)[O-]	inconclusive: -42.5%
CCC(SC1=N/C(=C/c2ccccc2)C(=O)N1c1ccccc1)C(=O)Nc1cc(C)on1 (stereo not given)	inactive: 107%
COc1ccc(Cl)cc1S(=O)(=O)NCc1cccnc1	inconclusive: -32%
COCCCNC(=S)NC1CCCCC1	inconclusive: -61.4%
N#CCCn1cc(/C=N/NC(=O)c2ccncc2)c(-c2ccc(F)cc2)n1	inactive: 11%
Cc1cccc(-n2c3nc(=O)[nH]c(=O)c-3cc3c(C)nn(-c4ccccc4)c32)c1	inconclusive: -68.1%

Exported as comma-separated lines: entries from further up.
Compound,"activity change (PNC), negative = inhibition"
Cn1cccc1/C=N/n1c(-c2ccc(Cl)cc2Cl)n[nH]c1=S,inactive: 14.8%
CC(=O)c1ccc(N2CCN(C(=S)Nc3cc(C)ccc3C)CC2)cc1,active: -90.2%
Cc1cccc(-n2cnc3cc(C(=O)N4CCc5ccccc54)ccc32)c1,inconclusive: -37.6%
COc1ccc(N2CCC(CNC(=O)Nc3ccc(OC)cc3OC)C2)cc1 (stereo not given),inconclusive: -46.7%
COc1ccc(C=O)cc1OS(=O)(=O)c1ccccc1[N+](=O)[O-],inconclusive: -42.5%
CCC(SC1=N/C(=C/c2ccccc2)C(=O)N1c1ccccc1)C(=O)Nc1cc(C)on1 (stereo not given),inactive: 107%
COc1ccc(Cl)cc1S(=O)(=O)NCc1cccnc1,inconclusive: -32%
COCCCNC(=S)NC1CCCCC1,inconclusive: -61.4%
N#CCCn1cc(/C=N/NC(=O)c2ccncc2)c(-c2ccc(F)cc2)n1,inactive: 11%
Cc1cccc(-n2c3nc(=O)[nH]c(=O)c-3cc3c(C)nn(-c4ccccc4)c32)c1,inconclusive: -68.1%
